These are yes or no findings as the source states them, for the method shown. Binding seen in cells or lysates may run through a third protein. For some of these results: Binding can be weak; no strength is given. Sequences can lack the tags named with a protein.
B1: FLAG-14-3-3γ (protein, UniProt P61981 1-247)
chain: MVDREQLVQKARLAEQAERYDDMAAAMKNVTELNEPLSNEERNLLSVAYKNVVGARRSSWRVISSIEQKTSADGNEKKIEMVRAYREKIEKELEAVCQDVLSLLDNYLIKNCSETQYESKVFYLKMKGDYYRYLAEVATGEKRATVVESSEKAYSEAHEISKEHMQPTHPIRLGLALNYSVFYYEIQNAPEQACHLAKTAFDDAIAELDTLNEDSYKDSTLIMQLLRDNLTLWTSDQQDDDGGEGNN

Legend:
[1] = target: T1, FLAG-14-3-3γ (UniProt P61981); assay: co-IP; anti-FLAG IP from NIH3T3 cells stably expressing FLAG-14-3-3γ or FLAG-14-3-3σ that were treated with LY294002; immunoblot for p110 and TSC2
T1 sequence: B1 chain

[2] = target: T2, GST-14-3-3γ (UniProt P61981); assay: pull-down; GST-14-3-3 bound to glutathione-Sepharose beads, incubated with precleared NIH3T3 cell lysates 2 h at 4°C, washed three times with PBS, immunoblot for Raf-1, PI3K p110 and TSC2; only the target purified
T2 sequence: B1 chain

[3] = target: T1, FLAG-14-3-3γ; assay: co-IP; 1 mg lysate of NIH3T3 cells stably expressing FLAG-14-3-3γ or FLAG-14-3-3σ, 5 µg anti-Flag antibody overnight at 4°C, protein A/G beads, washed with RIPA buffer, immunoblot; reciprocal IPs with anti-Raf-1, anti-p110 and anti-TSC2; also from cells treated with PD98059 (interaction with p110 not eliminated, with TSC2 reduced)
[4] = target: PI3K p110 catalytic subunit (mouse (endogenous in NIH3T3)); assay: as above

Molecule	binding [1]	binding [2]	binding [3]	binding [4]
PI3K p110 catalytic subunit (mouse (endogenous in NIH3T3)) (enzyme)	no binding (only cells treated with LY294002)	binds	binds	
B1				binds

From paper PMC2900177
